PubChem BioAssay AID504793 | Drosophila RNAi Screening Center, 2011
Assay: 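Knock-downs allowing continued mitosis even though DNA is damaged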 (primary screen). System: Drosophila S2R+ cells. Knock-down reagent: long dsRNA against Drosophila genes, about 0.25 µg dsRNA per well. Time to read-out: 4 days of dsRNA, then 4 hours of drug before read-out. Conditions: doxorubicin 0.5 µM for 4 hours to cause double-strand breaks, in cells also given a low, harmless dose of dsRNA against nbs to sensitise the assay. Detection: 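Mitotic index as the number of phospho-histone H3-positive cells in each well following doxorubicin, given as raw counts without normalisation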. Reading the numbers: mitotic cells: higher = more cells in mitosis, weaker G2 arrest. Rule for the call: 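Genes are called active only when high mitotic counts were reproduced with independent dsRNAs and mitosis was checked for delay without damage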. Meaning of the calls: active = confirmed in follow-up tests; inactive = not confirmed.
The deposit covers about 23,000 reagents; shown is an unselected part of those with a known target gene and a result. Of all reagents, 62 (0.27%) are marked active. 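Calls come from follow-up tests whose scores are not deposited, so confirmed genes may have low counts here; counts are not normalised per plate.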 Raw values vary from plate to plate and are shown uncorrected. The numbers tell different reagents against one gene apart. Names joined by + are all predicted targets of the reagent. No sequences are given here.

The opening 8 records as a preview:
Target gene	dsRNA no.	mitotic cells, replicate 1	mitotic cells, replicate 2	call
CG1529	1	5	11	inactive
CG1529	2	10		inactive
Msh6	1	5		inactive
Kpc1	1	6		inactive
Tis11	1	19		inactive
CG11298	1	14		inactive
Sbp2	1			inactive
Tsp42Ep	1	13		inactive

Main list, repeating the preview:
Target gene	dsRNA no.	mitotic cells, replicate 1	mitotic cells, replicate 2	call
CG1529	1	5	11	inactive
CG1529	2	10		inactive
Msh6	1	5		inactive
Kpc1	1	6		inactive
Tis11	1	19		inactive
CG11298	1	14		inactive
Sbp2	1			inactive
Tsp42Ep	1	13		inactive
CR15821	1	9		inactive
CR15821	2	10		inactive
mRpL47	1	3		inactive
Spn100A	1	2		inactive
spag4	1	9		inactive
niki	1	9		inactive
NTPase	1	4		inactive
NTPase	2	7		inactive
CG7214	1	11		inactive
CG7214	2	14		inactive
CG7214	3			inactive
CG8837	1	4		inactive
CG8837	2	5		inactive
CG17224	1	1		inactive
yellow-h	1	15		inactive
CG4306	1	6		inactive
CG4306	2	6		inactive
Obp99a	1	9		inactive
pcs	1	2		inactive
CG11381	1	5		inactive
CG11381	2	12		inactive
Kap-alpha3	1	15		active
CG1792	1	18		inactive
CG1792	2	5		inactive
CG9395	1	4		inactive
CG9395	2	10		inactive
CG4363	1	7		inactive
CG42729	1	4		inactive
Ugt36A1 + CG15418	1	3		inactive
Ugt36A1 + CG15418	2	1		inactive
CG11696	1	6		inactive
Vsp37A	1	11		inactive
CG14095	1	3		inactive
VGlut	1	7		inactive
VGlut	2	9		inactive
CG3769	1	2		inactive
CG4133	1	7		inactive
Rheb	1	6		inactive
Npc2c	1	7		inactive
Npc2c	2	6		inactive
Cyp12e1	1	11		inactive
Ctr1C	1	19		inactive
CG17202	1	12		inactive
CG8701	1	3		inactive
UQCR-6.4	1	8		inactive
UQCR-6.4	2	2		inactive
Hsc70-1	1	7		inactive
Hsc70-1	2	10		inactive
CG6441	1	4		inactive
CG12998	1	8		inactive
Osi16	1	6		inactive
Osi16	2	7		inactive
Mlc1	1	24		inactive
Mlc1	2	11		inactive
CG12964	1	36		inactive
CG12964	2	5		inactive
Prosalpha4	1	19		inactive
Prosalpha4	2	5		inactive
laza	1	5		inactive
laza	2	9		inactive
laza	3	2		inactive
pHCl-1	1	4		inactive
pHCl-1	2	13		inactive
Zir	1	4		inactive
CG7798	1	10		inactive
CG13933	1	10		inactive
ttm3	1	7		inactive
mTerf5	1	3		inactive
CG12991	1	12		inactive
CG12991	2	10		inactive
CG6686	1	13		inactive
CG6686	2	3		inactive
CG4669	1	5		inactive
ZAP3	1	6		inactive
ZAP3	2	9		inactive
ZAP3	3	17		inactive
CG2104	1	4		inactive
CG14950 (retired record)	1	5		inactive
CG8089	1	5		inactive
Gpo3	1	5		inactive
Ugt307A1	1	5		inactive
CG10185	1	8		inactive
snoRNA:Me18S-C1280 (retired record)	1	12		inactive
bor	1	9		inactive
Ncc69	1	2		inactive
Ncc69	2	8		inactive
Ncc69	3	6		inactive
trh	1	5		inactive
trh	2	11		inactive
trh	3	1		inactive
CG5004	1	13		inactive
CG5004	2	7		inactive
CG7884	1	8		inactive
CG7884	2	6		inactive
CG4511	1	6		inactive
CG4511	2	5		inactive
Arl8	1	2		inactive
hiro	1	2		inactive
hiro	2	6		inactive
Cpr67Fb	1	4		inactive
Cpr67Fb	2	8		inactive
CG33453	1	8		inactive
